Measurements published in paper PMC9892521.
Results are given in words; binding and its absence hold for the method and conditions named. In cells and extracts the contact can be indirect. Some binding calls cover weakened binding; strength is not graded here.

Biological target: programmed death-ligand 1 (PD-L1) (UniProt Q9NZQ7)
Assay: co-IP; endogenous immunoprecipitation from cell lysate; lysis buffer 10 mM Tris-HCl pH 7.4, 150 mM NaCl, 5 mM NaF, 10 mM DTT, 5% glycerol; 5 ug of the indicated antibodies or isotype control IgG-conjugated beads, overnight at 4 °C; western blot

Question: How did the binding turn out when “USP20 (from UniProt Q9Y2K6 1-914) (enzyme)” was run?
Answer: binds
